“And” between values parts separate entries of the source, which are not always exact repeats. Equal values may be shown once. Where a name gives a salt, the structure may show the parent alone. ± gives the standard deviation of the averaged measurements. This is one part of the list. Single values are uncertain, as repeats are few or missing.
Tested on: RAW 264.7
Assay: cell viability (MTT) relative to vehicle control; higher = more viable cells
Conditions: stimulus: HMGB1 5 ug/ml, 18 h
[1] = compound concentration: 1 ug/ml

Structure (SMILES) | cell viability (compound concentration: 3 uM) | cell viability [1] [%]
C=CCN1CCc2c(cc(O)c(O)c2Cl)C(c2ccccc2)C1 (racemic) [(±)-Chloro-APB hydrobromide] | 98.2% | –
CCc1c2c(nc3ccc(OC(=O)N4CCC(N5CCCCC5)CC4)cc13)-c1cc3c(c(=O)n1C2)COC(=O)[C@]3(O)CC [Irinotecan Hydrochloride] | 85.2% | –
CCc1c2c(nc3ccc(OC(=O)N4CCC(N5CCCCC5)CC4)cc13)-c1cc3c(c(=O)n1C2)COC(=O)[C@]3(O)CC [IRINOTECAN HCl )trihydrate)] | 94.6% | –
C[C@H]1[C@H](NC(=O)/C(=N\OC(C)(C)C(=O)O)c2csc(N)n2)C(=O)N1S(=O)(=O)O [Aztreonam] | 89.8 ± 1.6% | –
C[C@H]1[C@H](NC(=O)/C(=N\OC(C)(C)C(=O)O)c2csc(N)n2)C(=O)N1S(=O)(=O)O | 103 ± 6.5% | –
CNCCC=C1c2ccccc2CCc2ccccc21 | 104% | –
CNCCC=C1c2ccccc2CCc2ccccc21 [Nortriptyline hydrochloride] | 105 ± 1% | –
O=c1onc2n1-c1cc(Br)ccc1OC2 | 103% | –
Cc1c(Cl)cccc1Nc1ncccc1C(=O)O [Clonixin Lysinate] | 108% | –
CC(C)(O/N=C(\C(=O)N[C@@H]1C(=O)N2C(C(=O)[O-])=C(C[n+]3ccccc3)CS[C@H]12)c1csc(N)n1)C(=O)O | 96.7% | –
CC(C)(O/N=C(\C(=O)N[C@@H]1C(=O)N2C(C(=O)[O-])=C(C[n+]3ccccc3)CS[C@H]12)c1csc(N)n1)C(=O)O [Ceftazidime pentahydrate] | 106% | –
CC(C)(O/N=C(\C(=O)N[C@@H]1C(=O)N2C(C(=O)[O-])=C(C[n+]3ccccc3)CS[C@H]12)c1csc(N)n1)C(=O)O [Ceftazidime] | 87.2% | –
C=C1/C(=C\C=C2/CCC[C@]3(C)[C@@H]([C@H](C)CCCC(C)(C)O)CC[C@@H]23)C[C@@H](O)C[C@@H]1O | 98.1% | –
C=C1/C(=C\C=C2/CCC[C@]3(C)[C@@H]([C@H](C)CCCC(C)(C)O)CC[C@@H]23)C[C@@H](O)C[C@@H]1O [Calcitriol] | 96.1% | –
Cc1ccc(/C(=C\CN2CCCC2)c2ccccn2)cc1 | 106% | –
Cc1ccc(/C(=C\CN2CCCC2)c2ccccn2)cc1 [Triprolidine hydrochloride] | 106 ± 5.5% | –
NC(=O)c1ncn([C@@H]2O[C@H](CO)[C@@H](O)[C@H]2O)c1O | 109% | –
NC(=O)c1ncn([C@@H]2O[C@H](CO)[C@@H](O)[C@H]2O)c1O [Mizoribine] | 107% | –
O=C1C=CC(=O)c2c1ccc1c2ccc2ccccc21 [Chrysene-1,4-quinone] | 99.5% | –
O=C(N/N=C/c1ccc([N+](=O)[O-])o1)c1ccc(O)cc1 | 100% | –
O=C(N/N=C/c1ccc([N+](=O)[O-])o1)c1ccc(O)cc1 [Nifuroxazide] | 78% | –
Nc1ncnc2c1ncn2[C@@H]1O[C@H](COP(=O)(O)CP(=O)(O)OP(=O)(O)O)[C@H](O)C1O (stereo partly drawn) [alpha,beta-Methylene adenosine 5'-triphosphate dilithium] | 103% | –
CN1CCN(C(c2ccccc2)c2ccc(Cl)cc2)CC1 (stereo not drawn) | 112% | –

Structure (SMILES) | cell viability (compound concentration: 3 uM) | cell viability [1] [%]
CN1CCN(C(c2ccccc2)c2ccc(Cl)cc2)CC1 (stereo not drawn) [Chlorcyclizine hydrochloride] | 107% | –
CN(N=O)C(=O)N[C@@H](C=O)[C@@H](O)[C@H](O)[C@H](O)CO [Streptozotocin] | 132% | –
Cn1cc(C2=C(c3ccc(Cl)cc3Cl)C(=O)NC2=O)c2ccccc21 | 102% | –
CC(=O)N[C@H]1[C@H]([C@H](O)[C@H](O)CO)OC(C(=O)O)=C[C@@H]1O [N-Acetyl-2,3-dehydro-2-deoxyneuraminic acid] | 115% | –
Nc1ncnc2c1ncn2[C@@H]1O[C@H](COC(=O)CCC(=O)O)[C@@H](O)[C@H]1O [Adenosine 5'-succinate] | – | 103
CC(=O)Nc1c(I)c(NC(C)=O)c(I)c(C(=O)O)c1I | 110% | –
CCc1cc(C(N)=S)ccn1 [Ethionamide] | 78.1% | –
CCc1cc(C(N)=S)ccn1 | 110% | –
Cc1ccc(C(=O)Nc2ccc(S(=O)(=O)O)c3cc(S(=O)(=O)O)cc(S(=O)(=O)O)c23)cc1NC(=O)c1cccc(NC(=O)Nc2cccc(C(=O)Nc3cc(C(=O)Nc4ccc(S(=O)(=O)O)c5cc(S(=O)(=O)O)cc(S(=O)(=O)O)c45)ccc3C)c2)c1 [Suramin sodium salt] | 119% | –
Cc1ccc(C(=O)Nc2ccc(S(=O)(=O)O)c3cc(S(=O)(=O)O)cc(S(=O)(=O)O)c23)cc1NC(=O)c1cccc(NC(=O)Nc2cccc(C(=O)Nc3cc(C(=O)Nc4ccc(S(=O)(=O)O)c5cc(S(=O)(=O)O)cc(S(=O)(=O)O)c45)ccc3C)c2)c1 [Suramin] | 120% | –
Cc1ccc(C(=O)Nc2ccc(S(=O)(=O)O)c3cc(S(=O)(=O)O)cc(S(=O)(=O)O)c23)cc1NC(=O)c1cccc(NC(=O)Nc2cccc(C(=O)Nc3cc(C(=O)Nc4ccc(S(=O)(=O)O)c5cc(S(=O)(=O)O)cc(S(=O)(=O)O)c45)ccc3C)c2)c1 | 102.1 ± 0.69% | –
CCC(=O)[C@@]1(C)[C@H](C)C[C@H]2[C@@H]3CCC4=CC(=O)C=C[C@]4(C)[C@H]3[C@@H](O)C[C@@]21C [Rimexolone] | 96.1% | –
CC(=O)Nc1ccc(S(=O)(=O)Nc2ccc([N+](=O)[O-])cc2)cc1 | 103% | –
CC#CCOC(=O)c1c(C)nc2sc3c(c2c1N)CCC(O)C3 (stereo not drawn) | 84.3% | –
O=C([O-])CC(O)(CC(=O)[O-])C(=O)[O-].[Fe+3] [Ferric citrate] | – | 95.1
CC[C@]12CCCN3CCc4c(n(c5ccccc45)C(=O)C1)[C@@H]32 [Eburnamonine (-)] | 107% | –
CC[C@]12CCCN3CCc4c(n(c5ccccc45)C(=O)C1)[C@@H]32 | 111% | –
CCn1cc(C(=O)O)c(=O)c2cc(F)c(N3CCN(C)CC3)cc21 | 90% and 106% | –
CCn1cc(C(=O)O)c(=O)c2cc(F)c(N3CCN(C)CC3)cc21 [Pefloxacine] | 108 ± 12% | –
CN=C(N)NCCC[C@H](N)C(=O)O [L-Ornithine, N5-[imino(methylamino)methyl]-[CAS]] | 101% | –
CCCCCCCCCCC(C)(C)C(=O)Nc1c(OC)cc(OC)cc1OC | 111% | –
Cn1c(=O)c2[nH]c(-c3ccc(S(=O)(=O)O)cc3)nc2n(C)c1=O [8-(p-Sulfophenyl)theophylline] | 93.8% | –
C[C@@H]1O[C@@H]1P(=O)(O)O | 105% | –

At a glance, part of the list above.
Structure (SMILES) | cell viability (compound concentration: 3 uM) | cell viability [1] [%]
CN1CCN(C(c2ccccc2)c2ccc(Cl)cc2)CC1 (stereo not drawn) [Chlorcyclizine hydrochloride] | 107% | –
CN(N=O)C(=O)N[C@@H](C=O)[C@@H](O)[C@H](O)[C@H](O)CO [Streptozotocin] | 132% | –
Cn1cc(C2=C(c3ccc(Cl)cc3Cl)C(=O)NC2=O)c2ccccc21 | 102% | –
CC(=O)N[C@H]1[C@H]([C@H](O)[C@H](O)CO)OC(C(=O)O)=C[C@@H]1O [N-Acetyl-2,3-dehydro-2-deoxyneuraminic acid] | 115% | –
Nc1ncnc2c1ncn2[C@@H]1O[C@H](COC(=O)CCC(=O)O)[C@@H](O)[C@H]1O [Adenosine 5'-succinate] | – | 103
CC(=O)Nc1c(I)c(NC(C)=O)c(I)c(C(=O)O)c1I | 110% | –

Going on with the list.

Structure (SMILES) | cell viability (compound concentration: 3 uM) | cell viability [1] [%]
C[C@@H]1O[C@@H]1P(=O)(O)O [Phosphomycin disodium] | 106% | –
C[C@@H]1CN(c2c(F)c(N)c3c(=O)c(C(=O)O)cn(C4CC4)c3c2F)C[C@H](C)N1 [Sparfloxacin] | 100 ± 13% | –
O[C@H]1[C@H](O)[C@@H](O)[C@@H]2O[C@@H]2[C@@H]1O (racemic) [Conduritol B epoxide] | 97% | –
Cc1ccc(S(=O)(=O)NCl)cc1 | 103% | –
C[C@]12C=CC(=O)C=C1CC[C@@H]1C2=CC[C@]2(C)[C@@H](C(=O)CN3CCN(c4cc(N5CCCC5)nc(N5CCCC5)n4)CC3)CC[C@@H]12 | 122% | –
C[C@]12C=CC(=O)C=C1CC[C@@H]1[C@@H]2C(=O)C[C@@]2(C)[C@H]1CC[C@]2(O)C(=O)CO | 102% | –
C[C@]12C=CC(=O)C=C1CC[C@@H]1[C@@H]2C(=O)C[C@@]2(C)[C@H]1CC[C@]2(O)C(=O)CO [Prednisone] | 104 ± 4.9% | –
Nc1ncnc2nc(-c3ccc(N4CCOCC4)nc3)cc(-c3cccc(Br)c3)c12 [ABT-702 dihydrochloride] | 102% | –
CCOC(=O)CCC(=O)O[C@H]1[C@H](O[C@@H]2[C@@H](C)[C@H](O[C@H]3C[C@@](C)(OC)[C@@H](O)[C@H](C)O3)[C@@H](C)C(=O)O[C@H](CC)[C@@](C)(O)[C@H](O)[C@@H](C)C(=O)[C@H](C)C[C@@]2(C)O)O[C@H](C)C[C@@H]1N(C)C | 107% | –
CCOC(=O)CCC(=O)O[C@H]1[C@H](O[C@@H]2[C@@H](C)[C@H](O[C@H]3C[C@@](C)(OC)[C@@H](O)[C@H](C)O3)[C@@H](C)C(=O)O[C@H](CC)[C@@](C)(O)[C@H](O)[C@@H](C)C(=O)[C@H](C)C[C@@]2(C)O)O[C@H](C)C[C@@H]1N(C)C [erythromycin ethylsuccinate] | – | 105
COc1ccc2oc(-c3ccc(O)cc3)cc(=O)c2c1 | – | 80.1
CN1CCN(C2=Nc3ccccc3Sc3ccc(Cl)cc32)CC1 [Clothiapine] | 95% | –
CCC1=C[C@@H]2CN(C1)Cc1c([nH]c3ccccc13)[C@@](C(=O)OC)(c1cc3c(cc1OC)N(C)[C@H]1[C@@](O)(C(=O)OC)[C@H](OC(C)=O)[C@]4(CC)C=CCN5CC[C@]31[C@@H]54)C2 [Vinorelbine] | 100% | –
CC(C)CN(C[C@@H](O)[C@H](Cc1ccccc1)NC(=O)O[C@H]1CCOC1)S(=O)(=O)c1ccc(N)cc1 [Amprenavir] | 101% | –
CNC(=C[N+](=O)[O-])NCCSCc1csc(CN(C)C)n1 [Nizatidine] | 116% | –
CNC(=C[N+](=O)[O-])NCCSCc1csc(CN(C)C)n1 | 102 ± 3.9% | –
O=C(O)C1=CCNCC1 [Isoguvacine hydrochloride] | 104% | –
COc1cc(C)nc(-n2nc(C)cc2OC)n1 | 95.8% | –
COc1cc(C)nc(-n2nc(C)cc2OC)n1 [Epirizole] | 93.1% | –
CS(=O)(=O)Nc1ccc([N+](=O)[O-])cc1Oc1ccccc1 [Nimesulide] | 104 ± 13% | –
CS(=O)(=O)Nc1ccc([N+](=O)[O-])cc1Oc1ccccc1 | 102% | –
NC(=O)c1cc[n+](CC2=C(C(=O)O)N3C(=O)[C@@H](NC(=O)C(c4ccccc4)S(=O)(=O)[O-])[C@H]3SC2)cc1 (stereo partly drawn) [Cefsulodin sodium salt hydrate] | 109% | –

Reference: the supplement of paper PMC3682954
